PubChem BioAssay AID652272 | Drosophila RNAi Screening Center | 2013
Assay: 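Genes whose knock-down decreases or increases Hedgehog reporter output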 (primary screen). System: Drosophila clone 8 (Cl8) cells. Reagents: long dsRNA against Drosophila genes. Read-out: 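Plate reader light from a firefly reporter under a ptc promoter fragment that responds to Hedgehog, with Renilla light as transfection reference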. Scale: firefly Hh reporter signal: higher = more ptc reporter light; Renilla reference signal: higher = more Renilla control light. Call rule: 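Hit when the z-score averaged over two replicates is under -2 or over +3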. Calls: active = hit: reporter lowered or raised; inactive = not a hit.
In all, the deposit lists about 21,000 reagents; below is a random part of those with a known target gene and a result. Over the whole deposit, 503 (2.4%) got an active call. 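Raw plate light values, not normalised; calls rest on replicate z-scores that were not deposited; hits include reporter decreases as well as increases.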 A plus sign joins genes that one reagent is predicted to hit. Reagent sequences are not shown. Not given: the amount of reagent, the time to read-out.

target | DRSC id | firefly Hh reporter signal, replicate 1 | firefly Hh reporter signal, replicate 2 | firefly Hh reporter signal, replicate 3 | Renilla reference signal, replicate 1 | Renilla reference signal, replicate 2 | Call
CG17002 (GeneID 35610) | DRSC04978 | 50499 | 38411 | – | 2768 | 1942 | inactive
CG5639 (GeneID 43314) | DRSC15851 | 69387 | 96467 | – | 2113 | 1943 | inactive
Mkp + CG34140 | DRSC08585 | 1.06e5 | 58916 | – | 4672 | 2602 | inactive
CG14853 (GeneID 41771) | DRSC14977 | 1.31e5 | 7.90e5 | 1.46e5 | 4165 | 5815 | inactive
CG4820 (GeneID 41344) | DRSC15654 | 70857 | 1.28e5 | – | 2432 | 3581 | inactive
CG13426 (GeneID 37312) | DRSC06388 | 1.02e5 | 52162 | – | 2470 | 2152 | inactive
RpS18 (GeneID 37292) | DRSC07540 | 26656 | 20106 | – | 1258 | 2388 | active
bug (GeneID 36749) | DRSC07137 | 86550 | 47510 | – | 4307 | 2010 | inactive
CG31559 (GeneID 40749) | DRSC12172 | 69152 | 94218 | – | 2675 | 2709 | inactive
CG31559 (GeneID 40749) | DRSC12270 | 55497 | 1.05e5 | – | 2140 | 2778 | inactive
CG42747 (GeneID 38732) | DRSC10209 | 43259 | 68999 | – | 1059 | 5543 | inactive
CG42747 (GeneID 38732) | DRSC10210 | 38825 | 93257 | – | 4561 | 5213 | inactive
Dnaaf4 (GeneID 34547) | DRSC02405 | 1.03e5 | 77835 | – | 3274 | 6828 | inactive
CG14655 (GeneID 40594) | DRSC12241 | 4.32e5 | 85909 | – | 3808 | 3808 | inactive
CG11298 (GeneID 37553) | DRSC04100 | 87427 | 79548 | – | 2288 | 6267 | inactive
Smyd3 (GeneID 44554) | DRSC17744 | 64266 | 1.85e5 | – | 1227 | 7667 | inactive
PIG-K (GeneID 31163) | DRSC18496 | 83260 | 2.24e5 | – | 3379 | 7928 | inactive
Dhc1 (GeneID 41171) | DRSC12748 | 3.13e5 | – | – | 5721 | – | inactive
Dhc1 (GeneID 41171) | DRSC16503 | 59621 | 1.09e5 | – | 2000 | 2944 | inactive
PpD5 (GeneID 44148) | DRSC04641 | 1.02e5 | 56229 | – | 2980 | 5264 | inactive
Larp4B (GeneID 38399) | DRSC08192 | 50461 | 22299 | – | 1840 | 1642 | inactive
net (GeneID 45339) | DRSC00309 | 1.66e5 | 1.10e5 | – | 3797 | 2919 | inactive
CG34280 (GeneID 5740878) | DRSC13229 | 54692 | 2.85e5 | – | 12248 | 6610 | inactive
spz4 (GeneID 34572) | DRSC02410 | 83501 | 63334 | – | 2506 | 5090 | inactive
U2af50 (GeneID 32602) | DRSC20297 | 1.01e5 | 73574 | – | 1622 | 1105 | inactive
NSD (GeneID 43351) | DRSC15691 | 92436 | 1.35e5 | – | 3574 | 3981 | inactive
Gnpat (GeneID 53586) | DRSC16960 | 4.97e5 | 1.28e5 | – | 26661 | 3501 | inactive
CG8620 (GeneID 50310) | DRSC11020 | 43952 | 49539 | – | 5411 | 3680 | inactive
CG13230 (GeneID 50237) | DRSC06350 | 80395 | 65027 | – | 1459 | 4680 | inactive
AsnRS (GeneID 35194) | DRSC01990 | 50621 | 71844 | – | 2499 | 3238 | inactive
CG30398 (GeneID 246591) | DRSC03891 | 1.65e5 | 2.20e5 | – | 3992 | 9371 | inactive
ssp7 (GeneID 318146) | DRSC18878 | 4.32e5 | 1.66e5 | – | 22793 | 3824 | inactive
CG7564 (GeneID 39956) | DRSC10880 | 80716 | – | – | 6017 | 3272 | inactive
emb (GeneID 34167) | DRSC03528 | 1.19e5 | 91379 | – | 3451 | 2269 | inactive
ksr (GeneID 40660) | DRSC12379 | 71874 | 95494 | – | 2680 | 2512 | inactive
CG42507 + Trl | DRSC09325 | 2.37e5 | – | – | 5562 | – | inactive
CG42507 + Trl | DRSC11308 | 24896 | 16349 | – | 1257 | 725 | inactive
Flacc (GeneID 32886) | DRSC20040 | 1.19e5 | 88116 | – | 3168 | 2668 | inactive
btv (GeneID 35073) | DRSC01615 | 95990 | 1.60e5 | – | 2613 | 8528 | inactive
btv (GeneID 35073) | DRSC02449 | 1.15e5 | 64805 | – | 2598 | 6261 | inactive

Reagents listed above marked active (1):
target | DRSC id | firefly Hh reporter signal, replicate 1 | firefly Hh reporter signal, replicate 2 | firefly Hh reporter signal, replicate 3 | Renilla reference signal, replicate 1 | Renilla reference signal, replicate 2 | Call
RpS18 (GeneID 37292) | DRSC07540 | 26656 | 20106 | – | 1258 | 2388 | active
